Data taken from the supplement of paper PMC7661543.
Differences between knockout arms are mostly noise.

Tested on: SKBR3
Test: relative cell number vs DMSO control (72 h) (% of DMSO); higher = less growth inhibition (more cells)
Protocol: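 QMAP-Seq: a pool of 5 breast cancer cell lines (ZR-75-1, SKBR3, HCC-38, MDA-MB-231, BT-20), each carrying 12 doxycycline-inducible Cas9 sgRNA perturbations (11 knockouts plus non-targeting sgNT), was treated with compounds for 72 h at four 10-fold doses (10 nM-10 uM or 1 nM-1 uM range). Barcodes were amplified and sequenced, and cell number was interpolated from 293T spike-in standard curves. The result is expressed as % of the median of DMSO wells. Two biological replicates.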

Fc1ccc(CNc2ncnc3ccc(F)cc23)cc1 [Spautin1]
Settings	relative cell number
sgRNA knockout: sgATF3, 10 nM	104
sgRNA knockout: sgATF3, 100 nM	76.7
sgRNA knockout: sgATF3, 1000 nM	97.1
sgRNA knockout: sgATF3, 10000 nM	101
sgRNA knockout: sgATF4, 10 nM	104
sgRNA knockout: sgATF4, 100 nM	97
sgRNA knockout: sgATF4, 1000 nM	98.9
sgRNA knockout: sgATF4, 10000 nM	89.2
sgRNA knockout: sgATF6, 10 nM	102
sgRNA knockout: sgATF6, 100 nM	92.4
sgRNA knockout: sgATF6, 1000 nM	95.8
sgRNA knockout: sgATF6, 10000 nM	88.2
sgRNA knockout: sgATG7, 10 nM	99
sgRNA knockout: sgATG7, 100 nM	85.5
sgRNA knockout: sgATG7, 1000 nM	87.4
sgRNA knockout: sgATG7, 10000 nM	112
sgRNA knockout: sgERN1, 10 nM	98.2
sgRNA knockout: sgERN1, 100 nM	93.1
sgRNA knockout: sgERN1, 1000 nM	91
sgRNA knockout: sgERN1, 10000 nM	77.1
sgRNA knockout: sgHSF1, 10 nM	84.8
sgRNA knockout: sgHSF1, 100 nM	90.91
sgRNA knockout: sgHSF1, 1000 nM	96.4
sgRNA knockout: sgHSF1, 10000 nM	106
sgRNA knockout: sgHSF2, 10 nM	86.4
sgRNA knockout: sgHSF2, 100 nM	99
sgRNA knockout: sgHSF2, 1000 nM	103
sgRNA knockout: sgHSF2, 10000 nM	79.8
sgRNA knockout: sgKEAP1, 10 nM	112
sgRNA knockout: sgKEAP1, 100 nM	109
sgRNA knockout: sgKEAP1, 1000 nM	90.7
sgRNA knockout: sgKEAP1, 10000 nM	83.1
sgRNA knockout: sgNFE2L2, 10 nM	97.3
sgRNA knockout: sgNFE2L2, 100 nM	95.22
sgRNA knockout: sgNFE2L2, 1000 nM	99.1
sgRNA knockout: sgNFE2L2, 10000 nM	95.9
sgRNA knockout: sgSLC35F2, 10 nM	97.3
sgRNA knockout: sgSLC35F2, 100 nM	95.4
sgRNA knockout: sgSLC35F2, 1000 nM	97.7
sgRNA knockout: sgSLC35F2, 10000 nM	87
sgRNA knockout: sgXBP1, 10 nM	113
sgRNA knockout: sgXBP1, 100 nM	82
sgRNA knockout: sgXBP1, 1000 nM	94.1
sgRNA knockout: sgXBP1, 10000 nM	104

NC(=O)Nc1sc(-c2ccc(F)cc2)cc1C(N)=O [TPCA1]
Settings	relative cell number
sgRNA knockout: sgATF3, 10 nM	103
sgRNA knockout: sgATF3, 100 nM	120
sgRNA knockout: sgATF3, 1000 nM	109
sgRNA knockout: sgATF3, 10000 nM	70.9
sgRNA knockout: sgATF4, 10 nM	95.7
sgRNA knockout: sgATF4, 100 nM	102
sgRNA knockout: sgATF4, 1000 nM	90
sgRNA knockout: sgATF4, 10000 nM	67.6
sgRNA knockout: sgATF6, 10 nM	111
sgRNA knockout: sgATF6, 100 nM	80.5
sgRNA knockout: sgATF6, 1000 nM	109
sgRNA knockout: sgATF6, 10000 nM	66.1
sgRNA knockout: sgATG7, 10 nM	99.9
sgRNA knockout: sgATG7, 100 nM	88.6
sgRNA knockout: sgATG7, 1000 nM	113
sgRNA knockout: sgATG7, 10000 nM	67.9
sgRNA knockout: sgERN1, 10 nM	110
sgRNA knockout: sgERN1, 100 nM	120
sgRNA knockout: sgERN1, 1000 nM	123
sgRNA knockout: sgERN1, 10000 nM	69.5
sgRNA knockout: sgHSF1, 10 nM	94.2
sgRNA knockout: sgHSF1, 100 nM	98.7
sgRNA knockout: sgHSF1, 1000 nM	104
sgRNA knockout: sgHSF1, 10000 nM	54.3
sgRNA knockout: sgHSF2, 10 nM	113
sgRNA knockout: sgHSF2, 100 nM	92.5
sgRNA knockout: sgHSF2, 1000 nM	96.4
sgRNA knockout: sgHSF2, 10000 nM	73.6
sgRNA knockout: sgKEAP1, 10 nM	99.4
sgRNA knockout: sgKEAP1, 100 nM	99.1
sgRNA knockout: sgKEAP1, 1000 nM	93.1
sgRNA knockout: sgKEAP1, 10000 nM	65.3
sgRNA knockout: sgNFE2L2, 10 nM	95
sgRNA knockout: sgNFE2L2, 100 nM	88.9
sgRNA knockout: sgNFE2L2, 1000 nM	117
sgRNA knockout: sgNFE2L2, 10000 nM	64.8
sgRNA knockout: sgSLC35F2, 10 nM	98.4
sgRNA knockout: sgSLC35F2, 100 nM	92.6
sgRNA knockout: sgSLC35F2, 1000 nM	104
sgRNA knockout: sgSLC35F2, 10000 nM	73
sgRNA knockout: sgXBP1, 10 nM	102
sgRNA knockout: sgXBP1, 100 nM	113
sgRNA knockout: sgXBP1, 1000 nM	109
sgRNA knockout: sgXBP1, 10000 nM	81.6

Cn1nnc2c(C(N)=O)ncn2c1=O [Temozolomide]
Settings	relative cell number
sgRNA knockout: sgATF3, 10 nM	115
sgRNA knockout: sgATF3, 100 nM	113
sgRNA knockout: sgATF3, 1000 nM	125
sgRNA knockout: sgATF3, 10000 nM	126
sgRNA knockout: sgATF4, 10 nM	100
sgRNA knockout: sgATF4, 100 nM	94.9
sgRNA knockout: sgATF4, 1000 nM	97.9
sgRNA knockout: sgATF4, 10000 nM	115
sgRNA knockout: sgATF6, 10 nM	86.8
sgRNA knockout: sgATF6, 100 nM	79.2
sgRNA knockout: sgATF6, 1000 nM	98.7
sgRNA knockout: sgATF6, 10000 nM	89.8
sgRNA knockout: sgATG7, 10 nM	98.1
sgRNA knockout: sgATG7, 100 nM	95.1
sgRNA knockout: sgATG7, 1000 nM	92
sgRNA knockout: sgATG7, 10000 nM	112
sgRNA knockout: sgERN1, 10 nM	108
sgRNA knockout: sgERN1, 100 nM	101
sgRNA knockout: sgERN1, 1000 nM	105
sgRNA knockout: sgERN1, 10000 nM	118
sgRNA knockout: sgHSF1, 10 nM	98.7
sgRNA knockout: sgHSF1, 100 nM	89.3
sgRNA knockout: sgHSF1, 1000 nM	78.2
sgRNA knockout: sgHSF1, 10000 nM	110
sgRNA knockout: sgHSF2, 10 nM	90.3
sgRNA knockout: sgHSF2, 100 nM	87.4
sgRNA knockout: sgHSF2, 1000 nM	117
sgRNA knockout: sgHSF2, 10000 nM	93.7
sgRNA knockout: sgKEAP1, 10 nM	99.5
sgRNA knockout: sgKEAP1, 100 nM	104
sgRNA knockout: sgKEAP1, 1000 nM	111
sgRNA knockout: sgKEAP1, 10000 nM	98.4
sgRNA knockout: sgNFE2L2, 10 nM	110
sgRNA knockout: sgNFE2L2, 100 nM	79.6
sgRNA knockout: sgNFE2L2, 1000 nM	98.3
sgRNA knockout: sgNFE2L2, 10000 nM	111
sgRNA knockout: sgSLC35F2, 10 nM	96.3
sgRNA knockout: sgSLC35F2, 100 nM	86.1
sgRNA knockout: sgSLC35F2, 1000 nM	94.7
sgRNA knockout: sgSLC35F2, 10000 nM	87.8
sgRNA knockout: sgXBP1, 10 nM	104
sgRNA knockout: sgXBP1, 100 nM	91.5
sgRNA knockout: sgXBP1, 1000 nM	116
sgRNA knockout: sgXBP1, 10000 nM	123
